From publication PMC12033257 come the findings set out here.

Amino acid sequences for entries named in this document (tags omitted). A change or cut given only in a name is not applied to a line headed by its entry. Residues count along the entry.
UniProt P15941, residues 1098-1255: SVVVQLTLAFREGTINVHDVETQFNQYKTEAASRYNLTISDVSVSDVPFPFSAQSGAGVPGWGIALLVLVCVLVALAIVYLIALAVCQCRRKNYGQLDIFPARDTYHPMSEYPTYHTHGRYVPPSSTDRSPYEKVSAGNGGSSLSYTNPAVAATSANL
UniProt Q9Y6Q9: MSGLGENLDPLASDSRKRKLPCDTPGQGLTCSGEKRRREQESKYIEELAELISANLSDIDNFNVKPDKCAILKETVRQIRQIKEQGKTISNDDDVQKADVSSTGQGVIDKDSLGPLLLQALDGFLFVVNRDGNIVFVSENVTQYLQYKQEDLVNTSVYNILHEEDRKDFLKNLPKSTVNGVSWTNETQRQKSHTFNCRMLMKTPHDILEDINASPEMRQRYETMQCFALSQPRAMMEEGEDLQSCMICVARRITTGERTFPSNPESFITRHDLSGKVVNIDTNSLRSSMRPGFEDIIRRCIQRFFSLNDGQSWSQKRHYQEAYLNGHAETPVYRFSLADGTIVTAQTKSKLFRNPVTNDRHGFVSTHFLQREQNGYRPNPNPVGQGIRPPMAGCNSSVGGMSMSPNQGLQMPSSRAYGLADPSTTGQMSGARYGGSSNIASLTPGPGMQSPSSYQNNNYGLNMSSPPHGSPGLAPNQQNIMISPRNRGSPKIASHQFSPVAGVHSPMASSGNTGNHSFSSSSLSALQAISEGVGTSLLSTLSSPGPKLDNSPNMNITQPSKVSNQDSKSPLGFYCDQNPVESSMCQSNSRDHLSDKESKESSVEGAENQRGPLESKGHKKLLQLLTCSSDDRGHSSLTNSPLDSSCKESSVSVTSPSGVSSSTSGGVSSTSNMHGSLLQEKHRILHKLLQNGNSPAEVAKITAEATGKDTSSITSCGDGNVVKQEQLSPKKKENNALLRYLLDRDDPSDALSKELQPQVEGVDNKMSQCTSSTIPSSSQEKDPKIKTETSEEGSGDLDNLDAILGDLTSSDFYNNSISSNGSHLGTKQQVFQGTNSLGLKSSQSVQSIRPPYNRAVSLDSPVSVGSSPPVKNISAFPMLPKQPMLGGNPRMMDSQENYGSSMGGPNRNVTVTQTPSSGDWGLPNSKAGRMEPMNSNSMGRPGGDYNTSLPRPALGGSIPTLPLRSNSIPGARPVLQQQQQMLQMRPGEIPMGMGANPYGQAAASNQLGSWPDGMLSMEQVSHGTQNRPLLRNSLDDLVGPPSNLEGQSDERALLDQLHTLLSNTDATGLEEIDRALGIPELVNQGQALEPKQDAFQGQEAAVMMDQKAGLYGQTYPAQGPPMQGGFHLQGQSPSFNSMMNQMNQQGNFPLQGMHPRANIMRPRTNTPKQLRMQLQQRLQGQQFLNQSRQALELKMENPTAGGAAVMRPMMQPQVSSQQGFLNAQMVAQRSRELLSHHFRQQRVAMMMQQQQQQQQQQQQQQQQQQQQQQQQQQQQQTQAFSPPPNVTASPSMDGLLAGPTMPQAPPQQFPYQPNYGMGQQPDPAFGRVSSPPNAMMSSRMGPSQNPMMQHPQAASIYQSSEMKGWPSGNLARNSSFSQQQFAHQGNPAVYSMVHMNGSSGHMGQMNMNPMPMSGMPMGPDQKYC
UniProt Q15648: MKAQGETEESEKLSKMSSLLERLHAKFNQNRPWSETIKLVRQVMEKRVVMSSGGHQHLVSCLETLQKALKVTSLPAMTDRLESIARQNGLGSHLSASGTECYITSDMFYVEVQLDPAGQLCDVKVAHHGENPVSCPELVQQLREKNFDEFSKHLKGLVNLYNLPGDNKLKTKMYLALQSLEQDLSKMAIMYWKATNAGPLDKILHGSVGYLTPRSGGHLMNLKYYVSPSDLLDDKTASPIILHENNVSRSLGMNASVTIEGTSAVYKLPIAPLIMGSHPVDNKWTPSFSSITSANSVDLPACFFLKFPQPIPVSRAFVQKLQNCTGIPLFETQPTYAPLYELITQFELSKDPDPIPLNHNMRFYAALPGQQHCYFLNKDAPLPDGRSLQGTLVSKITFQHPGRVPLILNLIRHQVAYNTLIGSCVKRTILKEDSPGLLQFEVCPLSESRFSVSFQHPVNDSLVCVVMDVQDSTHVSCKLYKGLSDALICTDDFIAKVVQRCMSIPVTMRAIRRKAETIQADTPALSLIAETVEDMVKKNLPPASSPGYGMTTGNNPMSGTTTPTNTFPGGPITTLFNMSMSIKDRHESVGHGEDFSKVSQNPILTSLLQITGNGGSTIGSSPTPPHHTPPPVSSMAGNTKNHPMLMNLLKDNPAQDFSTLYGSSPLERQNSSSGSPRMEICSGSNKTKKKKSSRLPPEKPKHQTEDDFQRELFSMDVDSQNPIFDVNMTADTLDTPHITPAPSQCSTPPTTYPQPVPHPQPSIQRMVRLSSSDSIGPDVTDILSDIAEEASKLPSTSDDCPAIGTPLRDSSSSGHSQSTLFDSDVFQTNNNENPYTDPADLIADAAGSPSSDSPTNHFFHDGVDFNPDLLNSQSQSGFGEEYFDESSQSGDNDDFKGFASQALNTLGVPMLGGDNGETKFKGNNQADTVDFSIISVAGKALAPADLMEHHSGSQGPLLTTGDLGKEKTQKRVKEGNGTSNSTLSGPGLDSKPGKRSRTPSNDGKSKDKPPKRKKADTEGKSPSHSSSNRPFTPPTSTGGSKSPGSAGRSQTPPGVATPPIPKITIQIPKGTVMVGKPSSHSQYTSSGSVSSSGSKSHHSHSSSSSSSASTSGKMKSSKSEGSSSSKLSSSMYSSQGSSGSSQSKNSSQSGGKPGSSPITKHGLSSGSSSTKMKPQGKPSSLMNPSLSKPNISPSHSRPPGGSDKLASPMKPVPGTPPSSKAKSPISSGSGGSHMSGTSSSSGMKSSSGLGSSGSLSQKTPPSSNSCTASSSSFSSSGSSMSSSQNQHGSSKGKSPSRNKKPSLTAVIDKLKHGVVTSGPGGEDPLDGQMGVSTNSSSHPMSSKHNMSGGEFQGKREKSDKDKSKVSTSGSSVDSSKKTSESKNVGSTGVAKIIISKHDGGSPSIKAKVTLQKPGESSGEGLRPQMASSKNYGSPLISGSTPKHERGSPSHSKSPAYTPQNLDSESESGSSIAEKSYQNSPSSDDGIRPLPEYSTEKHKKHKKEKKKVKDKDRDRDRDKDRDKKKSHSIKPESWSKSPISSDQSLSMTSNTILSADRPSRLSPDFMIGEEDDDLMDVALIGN
UniProt P03372: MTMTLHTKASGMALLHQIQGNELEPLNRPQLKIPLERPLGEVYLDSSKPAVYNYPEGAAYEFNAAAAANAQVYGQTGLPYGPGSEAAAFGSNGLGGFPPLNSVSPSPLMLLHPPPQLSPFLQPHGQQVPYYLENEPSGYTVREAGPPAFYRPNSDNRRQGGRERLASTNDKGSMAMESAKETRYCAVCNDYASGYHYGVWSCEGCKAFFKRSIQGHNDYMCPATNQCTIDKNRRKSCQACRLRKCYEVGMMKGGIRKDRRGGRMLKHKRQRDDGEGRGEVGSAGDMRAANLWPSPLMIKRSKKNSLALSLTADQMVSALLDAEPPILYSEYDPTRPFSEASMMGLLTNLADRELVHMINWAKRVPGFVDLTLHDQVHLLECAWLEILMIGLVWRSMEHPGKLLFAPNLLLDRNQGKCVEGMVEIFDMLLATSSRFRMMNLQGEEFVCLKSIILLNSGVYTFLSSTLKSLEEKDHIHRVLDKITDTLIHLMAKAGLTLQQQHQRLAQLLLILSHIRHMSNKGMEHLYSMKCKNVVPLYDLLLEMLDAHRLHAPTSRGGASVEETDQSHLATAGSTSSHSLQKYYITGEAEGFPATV
UniProt P49137: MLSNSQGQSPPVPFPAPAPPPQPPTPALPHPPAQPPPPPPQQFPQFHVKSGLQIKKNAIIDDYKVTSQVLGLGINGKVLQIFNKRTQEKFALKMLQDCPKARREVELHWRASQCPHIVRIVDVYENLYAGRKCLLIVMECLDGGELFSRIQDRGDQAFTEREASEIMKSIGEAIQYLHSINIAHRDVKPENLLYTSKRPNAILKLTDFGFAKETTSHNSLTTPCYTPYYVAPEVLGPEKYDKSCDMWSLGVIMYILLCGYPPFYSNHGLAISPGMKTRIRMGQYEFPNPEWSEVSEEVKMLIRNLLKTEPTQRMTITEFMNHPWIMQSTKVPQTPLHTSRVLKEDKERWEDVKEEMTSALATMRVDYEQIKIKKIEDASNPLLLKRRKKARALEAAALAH

In test [1] the target is MUC1-C (MUC1 C-terminal subunit) (human (endogenous in MCF-7)) (UniProt P15941). As to the kind of experiment: co-IP; nuclear lysates from MCF-7/ER(Y537S) cells grown in hormone deprived conditions for 2 days, without and with E2 stimulation; precipitated with anti-MUC1-C (control IgG) on Dynabeads Protein G; immunoblot. In general terms: Immunoblotting shows a protein as a band on a membrane.

In test [2] the target is steroid receptor coactivator 3 (SRC-3/AIB1/NCOA3) (human (endogenous in MCF-7)) (UniProt Q9Y6Q9). As to the kind of experiment: co-IP; nuclear lysates from MCF-7 cells treated with 100 nM 17beta-estradiol (E2) for 3 h; precipitated with anti-MUC1-C, anti-SRC-3 or anti-MED1 (control IgG) on Dynabeads Protein G; immunoblot.
Test [3] deals with mediator subunit 1 (MED1) (human (endogenous in MCF-7)) (UniProt Q15648). Described as above.
The target of test [4] is MUC1-C (MUC1 C-terminal subunit) (human (endogenous in MCF-7)) (UniProt P15941). Described as above.
The target is the same in test [5]. Nature of the test: co-IP; Supplemental Fig. S2g, legend not shown; cells, antibody and treatment not stated; the methods describe only co-immunoprecipitation from nuclear lysates.

No constants are given. Whether binding was seen depends on the method and setting. Binding seen in cells or lysates may run through a third protein. Some binding calls cover weakened binding; strength is not graded here.

On to ER(Y537S) (from UniProt P03372 1-595), for which the binding result in test [1] is “binds”.

Regarding “MUC1-C (MUC1 C-terminal subunit) (from UniProt P15941 1098-1255)”, the binding entry in test [2] and in test [3] was “binds” in each case.

Take “estrogen receptor alpha (ER) (from UniProt P03372 1-595)”: the binding entry in test [4] and in test [3] was “binds” throughout.

Turning to “mediator subunit 1 (MED1) (from UniProt Q15648 1-1581)”, the binding entry in test [4] and in test [1] was “binds” in each case.

For “mitogen-activated protein (MAP) kinase-activated protein kinase 2 (MAPKAPK2; MK2) (from UniProt P49137 1-400)”, the binding entry in test [5] is on record as “binds”.

In the case of “steroid receptor coactivator 3 (SRC-3/AIB1/NCOA3) (from UniProt Q9Y6Q9 1-1424)”, the binding entry in test [4] and in test [1] was “binds” each time.
